# According to paper PMC9077876:
# The chains behind the UniProt entries cited, without tags or fusion partners.
# UniProt O15379: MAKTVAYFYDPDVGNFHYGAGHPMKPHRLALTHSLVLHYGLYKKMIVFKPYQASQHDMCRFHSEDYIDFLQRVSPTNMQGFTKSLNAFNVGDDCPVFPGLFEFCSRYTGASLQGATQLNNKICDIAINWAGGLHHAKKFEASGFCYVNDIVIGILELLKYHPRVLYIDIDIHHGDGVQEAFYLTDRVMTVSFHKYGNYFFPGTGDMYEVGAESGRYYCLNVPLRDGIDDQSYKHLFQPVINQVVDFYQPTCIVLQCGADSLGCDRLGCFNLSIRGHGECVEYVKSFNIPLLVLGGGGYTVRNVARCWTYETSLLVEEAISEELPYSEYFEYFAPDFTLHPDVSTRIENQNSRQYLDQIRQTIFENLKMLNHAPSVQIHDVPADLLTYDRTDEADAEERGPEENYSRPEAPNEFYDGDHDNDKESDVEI
# No constants are given. Whether binding was seen depends on the method and setting. Binding seen in cells or lysates may run through a third protein. Some binding calls cover weakened binding; strength is not graded here.
# Biological target: T1, CARM1 (human (endogenous in H1299, A549 and PC9)) (UniProt Q86X55)
# T1 sequence: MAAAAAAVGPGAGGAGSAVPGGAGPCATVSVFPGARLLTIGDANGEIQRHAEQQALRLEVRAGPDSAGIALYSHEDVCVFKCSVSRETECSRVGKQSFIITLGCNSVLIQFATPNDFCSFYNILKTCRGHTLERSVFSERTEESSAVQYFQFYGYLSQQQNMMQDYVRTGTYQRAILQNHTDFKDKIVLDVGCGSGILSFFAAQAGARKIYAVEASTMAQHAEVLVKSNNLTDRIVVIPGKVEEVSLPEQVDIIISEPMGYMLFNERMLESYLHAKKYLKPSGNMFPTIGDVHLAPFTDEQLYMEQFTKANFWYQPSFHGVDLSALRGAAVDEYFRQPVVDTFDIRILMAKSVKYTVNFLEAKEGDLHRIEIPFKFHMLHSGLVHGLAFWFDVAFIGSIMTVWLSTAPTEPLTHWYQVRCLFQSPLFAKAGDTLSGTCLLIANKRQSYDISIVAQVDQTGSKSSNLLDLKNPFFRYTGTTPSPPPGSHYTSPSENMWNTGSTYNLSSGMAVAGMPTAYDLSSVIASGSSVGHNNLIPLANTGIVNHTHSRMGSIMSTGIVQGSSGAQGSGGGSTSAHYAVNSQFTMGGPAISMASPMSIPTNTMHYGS
# Experiment: co-IP; Co-IP in A549 cells to confirm the interaction between CARM1 and HDAC3; which protein was precipitated is not told
substance,measurement,value
HDAC3 (from UniProt O15379 1-428),binding,binds
